Data taken from PubChem BioAssay AID493014 (National Center for Advancing Translational Sciences (NCATS), 2011).
The list shows a part of the results. Shown are side measurements of this screen, not its main read-out; they come without a call. The list favours compounds with an active or inconclusive main result. The note in brackets gives the kind of curve behind each potency; many fits are weak.

Test: qHTS Assay to Find Inhibitors of Chronic Active B-Cell Receptor Signaling
Settings: ABC-DLBCL IkBa-CBG/CBR reporter, luminescence ratio (green luciferase fused to IkBa over red control in TMD8 lymphoma cells), 4 h
Method in brief: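 Compounds up to 46 uM were incubated four hours with TMD8 cells whose green CBG68 luciferase is fused to IkappaBalpha; red CBR luminescence normalised the signal, and concentration-effect curves were fitted to fusion, red and ratio data.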

[1] = measured here: CBR red luminescence, cell number
[2] = measured here: IkBa-CBG green luminescence

Row | Structure (SMILES) | AC50 [1] | AC50 [2]
1 | CN(Cc1ccccc1)C(=O)COc1ccc(-c2nnco2)cc1 | 6.51 µM [rising, single point] | 
2 | COc1ccc(OC)c(NC(=O)CN2c3cccc4cccc(c34)S2(=O)=O)c1 | 5.17 µM [rising, single point] | 
3 | COc1ccc(CNc2nc(NCc3ccc(OC)cc3)c3[nH]cnc3n2)cc1 | 35.5 µM [falling, single point] | 
4 | Cc1ccc(OCCCCN2CCC(C)CC2)cc1 | 12.6 µM [rising, partial curve] | 
5 | O=C(Nc1nc2c(s1)CCCC2)C1COc2ccccc2O1 (configuration not stated) | 14.6 µM [falling, single point] | 
6 | COc1ccc(CCNC(=S)NC(=O)c2c(-c3ccccc3Cl)noc2C)cc1OC | 0.708 µM [rising, partial curve, poor fit] | 
7 | Clc1ccc(C2CC(c3ccco3)n3ncnc3N2)cc1Cl (configuration not stated) | 18.4 µM [falling, single point] | 
8 | CCCOC(=O)c1ccc(NC(=O)c2cccc(S(=O)(=O)N3CCN(C(C)=O)CC3)c2)cc1 | 31.6 µM [falling, single point] | 
9 | Cc1c(N=C2NN=C(c3c[nH]c4ccccc34)CS2)c(=O)n(-c2ccccc2)n1C | 35.5 µM [falling, single point] | 
10 | CCCCn1c(SCC(=O)c2ccccc2)nc2c(sc3ccccc32)c1=O | 0.112 µM [rising, full curve, poor fit] | 
11 | C(=C\n1nnc2ccccc21)/c1ccc[nH]1 | 23.1 µM [rising, single point] | 
12 | COc1ccc(C(=O)Nc2ccccc2Cc2ccccc2)c(OC)c1 | 6.51 µM [falling, partial curve, poor fit] | 
13 | COc1cc(/C=C(\NC(C)=O)C(=O)O)cc(OC)c1OC | 14.1 µM [rising, partial curve, poor fit] | 
14 | COc1cc(/C=N/NC(=O)CC#N)cc(Br)c1O | 12.6 µM [rising, partial curve, poor fit] | 
15 | CCc1c(C)nc2ncnn2c1N1CCCC(C(=O)NCCc2ccc(OC)cc2)C1 (configuration not stated) | 6.31 µM [rising, single point] | 
16 | C/C(=N/NC(=O)c1ccco1)c1ccc(NC(=O)c2ccc(F)cc2)cc1 | 29.1 µM [falling, single point] | 
17 | O=c1[nH]c(SCCOc2ccccc2F)nc2ccccc12 | 22.4 µM [falling, single point] | 12.6 µM [rising, single point]
18 | CCN(CC(=O)NCc1ccc(Cl)cc1)C(=O)CSc1cccc(C(F)(F)F)c1 | 16.4 µM [falling, partial curve] | 
19 | COC(=O)c1[nH]nc2c1C(=O)N(C1CCCCC1)C2=O | 22.4 µM [rising, single point] | 
20 | O=C(NC(=S)Nc1ccccn1)c1ccco1 | 11.6 µM [falling, single point] | 
21 | O=C(O)CCCC(=O)Nc1ccc(OCc2nc3ccccc3s2)cc1 | 7.08 µM [rising, full curve, poor fit] | 
22 | COc1cc(/C=N/NC(=O)CN(CCc2ccccc2)S(=O)(=O)c2ccc(NC(C)=O)cc2)cc(OC)c1OC | 14.6 µM [rising, partial curve, poor fit] | 

Row | Structure (SMILES) | AC50 [1] | AC50 [2]
23 | CCC1Oc2ccccc2C(=O)N(CC(=O)c2ccc3c(c2)OCCO3)C1=O (configuration not stated) | 3.16 µM [falling, single point] | 
24 | O=C(CNC(=O)c1ccco1)NCC(=O)OCc1ccccc1Br | 11.2 µM [rising, partial curve] | 
25 | CC(C)OC(=O)c1ccc(N2CCN(c3ccc(F)cc3)CC2)nc1 | 5.62 µM [rising, full curve] | 
26 | Cc1cc(NC(=O)c2ccc(COc3ccc(Cl)c(C)c3)o2)no1 | 20.6 µM [falling, single point] | 
27 | Cc1c(Br)cc(C(=O)NCc2ccco2)c(C)c1C | 2.31 µM [falling, single point] | 
28 | Cc1cccc(C)c1NC(=O)CN(C)C(=O)CCC(=O)N1CCOCC1 | 29.1 µM [rising, single point] | 
29 | CC(=O)Nc1ccc(NC(=O)CSc2ccc3nnc(CCNS(=O)(=O)c4ccc(C)cc4)n3n2)cc1 | 7.08 µM [rising, full curve, poor fit] | 
30 | CCCC(O)(c1ccc(OC)cc1)C(CN(C)C)c1ccccc1 (configuration not stated) | 29.1 µM [rising, single point] | 
31 | O=C(Cc1cccc(Cl)c1)Nc1ccc(Br)cc1 | 4.47 µM [rising, partial curve, poor fit] | 
32 | COc1ccccc1CCc1nnc(CCC(=O)N(C)Cc2cccc3cnccc23)o1 | 0.891 µM [rising, full curve] | 
33 | CCC(=O)Nc1cccc(NC(=O)c2ccc(C)cc2Cl)c1 | 14.1 µM [rising, single point] | 
34 | COc1cccc(-c2nc(C(=O)NCCCN3CCOCC3)cc3c2[nH]c2ccccc23)c1 | 20 µM [falling, single point] | 
35 | COc1cc(NS(=O)(=O)c2ccc(NC(=O)C34CC5CC(CC(C5)C3)C4)cc2)ncn1 | 6.51 µM [rising, single point] | 
36 | CC1Cc2c([nH]c3ccccc23)C2c3ccccc3CN12 (configuration not stated) | 7.08 µM [falling, partial curve] | 
37 | COc1ccc(S(=O)(=O)N2CCOC2CNC(=O)C(=O)NCCc2ccc(S(N)(=O)=O)cc2)cc1 (configuration not stated) | 35.5 µM [rising, single point] | 
38 | CCOc1ccccc1-c1cc(C(=O)N/N=C/c2ccc(O)c(OC)c2)c2ccccc2n1 | 29.1 µM [falling, single point] | 
39 | O=C(N[C@@H](Cc1ccccc1)C(=O)OCc1ccccc1)c1nc[nH]c1C(=O)N1CCc2ccccc2C1 | 22.4 µM [falling, single point] | 
40 | Cc1ccc(CNC(=O)C(=O)NCC(c2ccco2)N2CCOCC2)cc1 (configuration not stated) | 0.92 µM [falling, partial curve, poor fit] | 
41 | CC(C)CNC(=O)c1coc(=O)c(Br)c1 | 1.16 µM [rising, full curve, poor fit] | 14.6 µM [falling, partial curve, poor fit]
42 | COCc1nc(-c2ccc(-c3ccc(OC)cc3)nc2OC)no1 | 10.3 µM [rising, partial curve] | 
43 | CCCc1cc(-c2[nH]ncc2-c2ccc(C(=O)OCC)o2)c(O)cc1O | 10 µM [falling, partial curve, poor fit] | 
44 | CCc1ccc(NCc2cc3c(C)nn(-c4ccccc4)c3[nH]c2=O)cc1 | 20.6 µM [falling, partial curve, poor fit] | 

Row | Structure (SMILES) | AC50 [1] | AC50 [2]
45 | CCOC(=O)c1cccc(COC(=O)c2cccc(-c3nnc(-c4ccccc4)o3)c2)c1 | 16.4 µM [falling, partial curve] | 
46 | O=C(NCCC1=CCCCC1)c1ccc2c(c1)N(Cc1cccc(Cl)c1)C(=O)c1ccccc1S2=O (configuration not stated) | 15.8 µM [rising, single point] | 
47 | OCCSc1nc2ccccc2n1CCOc1ccccc1 | 2.06 µM [rising, full curve, poor fit] | 
48 | COCCn1c(SCc2c(F)cccc2Cl)nc2c1c(=O)[nH]c(=O)n2C | 0.291 µM [rising, full curve, poor fit] | 
49 | O=C(O)c1ccc(N=Cc2nc(-c3ccco3)oc2O)cc1 | 2.51 µM [falling, full curve] | 7.08 µM [rising, partial curve, poor fit]
50 | CCCCn1c(=N)n(CC(O)COc2cccc(C)c2)c2ccccc21 (configuration not stated) | 10 µM [falling, partial curve] | 
51 | CC(C)CC1(C)NC(=O)N(CC(=O)NC(=O)Nc2ccc3c(c2)OCCO3)C1=O (configuration not stated) | 10 µM [falling, partial curve, poor fit] | 
52 | O=C(N/N=C(/CC(=O)c1cccs1)C(F)(F)F)c1ccc(O)cc1 | 16.4 µM [falling, partial curve] | 
53 | COc1ccccc1-n1cnnc1SC1CCOC1=O (configuration not stated) | 0.794 µM [falling, partial curve, poor fit] | 
54 | Cc1ccc(S(=O)(=O)NC(CC(C)C)C(=O)Nc2nccs2)cc1 (configuration not stated) | 25.9 µM [falling, single point] | 
55 | CC1CCc2nc3sc4c(c3c(N)c2C1)CCCC4 (configuration not stated) | 0.58 µM [rising, partial curve, poor fit] | 
56 | CC1CC(=O)c2cnc(NCC3CCCO3)nc2C1 (configuration not stated) | 6.51 µM [rising, partial curve, poor fit] | 
57 | Cc1cccc2cc(COC(=O)c3cccs3)c(=O)[nH]c12 | 13 µM [rising, partial curve] | 
58 | CCOc1ccc(C2C3=C(CCCC3=O)Nc3nc(C(F)(F)F)nn32)cc1OC (configuration not stated) | 14.6 µM [falling, partial curve, poor fit] | 
59 | O=C(NNC(=S)Nc1ccc(Br)cc1)c1ccccc1 | 20 µM [falling, single point] | 
60 | CSCCC(NC(=O)c1ccccc1)C(=O)OCC(=O)c1ccc[nH]1 (configuration not stated) | 14.6 µM [rising, partial curve] | 
61 | O=C(O)c1cccc(C(=O)Nc2cccc(NC(=O)C3CCCO3)c2)c1 (configuration not stated) | 9.2 µM [falling, partial curve, poor fit] | 
62 | C#CC[N+](C)(C)CC#Cc1ccccc1 | 6.31 µM [falling, single point] | 
63 | CCOC(=O)C1CCCN(Cc2ccc3c(c2)OCO3)C1 (configuration not stated) | 10.3 µM [rising, partial curve, poor fit] | 
64 | COc1cc(C(=O)NCC(=O)OCc2cc(=O)oc3c(C)c(C)ccc23)cc(OC)c1OC | 3.55 µM [rising, single point] | 

Reprinted, nos. 47 to 51
Row | Structure (SMILES) | AC50 [1] | AC50 [2]
47 | OCCSc1nc2ccccc2n1CCOc1ccccc1 | 2.06 µM [rising, full curve, poor fit] | 
48 | COCCn1c(SCc2c(F)cccc2Cl)nc2c1c(=O)[nH]c(=O)n2C | 0.291 µM [rising, full curve, poor fit] | 
49 | O=C(O)c1ccc(N=Cc2nc(-c3ccco3)oc2O)cc1 | 2.51 µM [falling, full curve] | 7.08 µM [rising, partial curve, poor fit]
50 | CCCCn1c(=N)n(CC(O)COc2cccc(C)c2)c2ccccc21 (configuration not stated) | 10 µM [falling, partial curve] | 
51 | CC(C)CC1(C)NC(=O)N(CC(=O)NC(=O)Nc2ccc3c(c2)OCCO3)C1=O (configuration not stated) | 10 µM [falling, partial curve, poor fit] | 
